Reference: PubChem BioAssay AID504764 (Drosophila RNAi Screening Center, 2011)

- Aim: 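Knock-downs that raise or lower a Notch target reporter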 (primary screen)
- System: Drosophila Kc167 cells
- Reagent: long dsRNA against Drosophila genes
- Duration: about 5 days (4 days dsRNA, then 24 h after transfection)
- Challenge: transfection of constitutively active membrane-tethered Notch lacking the extracellular domain, read 24 h later
- Measured: 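Light from a Notch-responsive E(spl)m3 luciferase reporter under active Notch, with control-promoter and no-Notch reporter wells to normalise; raw counts from paired wells a and b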
- Reading the numbers: induced reporter light, run 1, well a and induced reporter light, run 1, well b: higher = more light from the Notch target reporter with active Notch; control promoter light, run 1, well a and control promoter light, run 1, well b: higher = more light from the viral control promoter (cell number, transfection, viability); uninduced reporter light, run 1, well a: higher = more light from the Notch target reporter without active Notch
- Hit rule: 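Hit if the duplicate-averaged log2 ratio of induced to control-promoter light gives a plate-wise z beyond ±2, or induced to uninduced beyond ±1.8; weak-control or discordant-duplicate wells dropped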
- Calls: active = modifier hit (raised or lowered Notch signal); inactive = not a hit
The screen tested about 22,000 reagents; shown is an unselected part of those that have a named target and a result. In the full data, 403 (1.9%) were called active. 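Unnormalised raw counts per well; ratio z-scores behind the hit calls and whether each hit raises or lowers signal are not deposited.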 Reagents against one gene are numbered here. A plus sign joins genes that one reagent is predicted to hit. No sequences are given here. Not stated in the record: the amount of reagent.

induced reporter light, run 1, well a	induced reporter light, run 1, well b	control promoter light, run 1, well a	control promoter light, run 1, well b	uninduced reporter light, run 1, well a	Call	gene knocked down	dsRNA no.
67405	94295	80055	99845	3820	inactive	Adf1 (Adh transcription factor 1)	1
1.35e5	1.63e5	1.21e5	1.41e5	13090	inactive	Adf1 (Adh transcription factor 1)	2
2.85e5	2.30e5	1.87e5	1.79e5	14820	inactive	Ube4B (Ubiquitination factor E4B)	1
1.23e5	1.29e5	1.88e5	1.68e5	12055	inactive	CG5639	1
1.23e5	1.10e5	2.09e5	2.39e5	7210	inactive	CG5928	1
1.09e5	1.08e5	1.85e5	1.88e5	6595	inactive	Lrt (Leucine-rich tendon-specific protein)	1
1.28e5	1.21e5	91425	83160	9995	inactive	CG42726 + CG42727	1
1.75e5	1.60e5	1.52e5	1.41e5	15400	inactive	CG1698	1
15220	15725	19210	12900	1085	inactive	ref(2)P (refractory to sigma P)	1
1.58e5	1.57e5	1.21e5	1.15e5	7940	inactive	tank	1
27970	26295	17260	19240	1530	inactive	Prp8 (pre-mRNA processing factor 8)	1
13645	13965	9250	8600	6265	inactive	red (red Malpighian tubules)	1
89055	66090	91775	87065	5565	inactive	AANATL2 (Arylalkylamine N-acetyltransferase-like 2)	1
55495	42445	47995	45665	4610	inactive	Spec2 (retired record)	1
1.87e5	2.32e5	1.58e5	1.97e5	15432	inactive	CG7778	1
1.22e5	1.41e5	1.33e5	1.35e5	10550	inactive	pygo (pygopus)	1
1.40e5	1.53e5	72405	83095	17300	inactive	Grip75	1
2.09e5	1.83e5	1.86e5	1.75e5	13078	inactive	CG6565	1

An excerpt from above, limited to “induced reporter light, run 1, well a”:
CG42726 + CG42727	1.28e5
CG1698	1.75e5
ref(2)P (refractory to sigma P)	15220
tank	1.58e5
Prp8 (pre-mRNA processing factor 8)	27970

More reagents:
induced reporter light, run 1, well a	induced reporter light, run 1, well b	control promoter light, run 1, well a	control promoter light, run 1, well b	uninduced reporter light, run 1, well a	Call	gene knocked down	dsRNA no.
1.16e5	1.20e5	94330	87235	10425	inactive	alpha-Est3 (alpha-Esterase-3)	1
1.38e5	1.37e5	1.45e5	1.12e5	11805	inactive	CG8839	1
89390	90490	1.85e5	1.93e5	7860	inactive	hep (hemipterous)	1
1.32e5	1.15e5	3.28e5	2.66e5	10010	inactive	hep (hemipterous)	2
89290	87295	1.61e5	1.48e5	7915	inactive	CG5770	1
1.11e5	1.45e5	2.10e5	2.06e5	8610	inactive	Lamtor5 (Late endosomal/lysosomal adaptor, MAPK and MTOR activator 5)	1
96575	1.06e5	62250	36665	10650	inactive	simj (simjang)	1
91950	83100	1.16e5	98165	5350	inactive	CG7236	1
94595	74655	1.06e5	1.15e5	8560	inactive	CG12862	1
1.01e5	73505	1.38e5	1.27e5	3840	inactive	RpL38 (Ribosomal protein L38)	1
1.66e5	1.44e5	1.46e5	1.28e5	11170	inactive	CG6891	1
1.09e5	1.14e5	1.72e5	1.35e5	8985	inactive	CG42561	1
1.70e5	1.60e5	2.34e5	3.02e5	9960	inactive	CG15376 (retired record)	1
1.05e5	1.13e5	83680	72115	8850	inactive	SMC5 (Structural maintenance of chromosomes 5)	1
3.37e5	2.67e5	3.92e5	3.87e5	20415	inactive	lncRNA:CR40629 (long non-coding RNA:CR40629)	1
1.73e5	2.12e5	2.47e5	2.33e5	16380	inactive	Mvd (Mevalonate diphosphate decarboxylase)	1
1.33e5	1.21e5	89355	87390	10482	inactive	CG11656	1
2.13e5	2.76e5	2.06e5	2.36e5	18320	inactive	Fatp (retired record)	1
96525	69940	64475	32185	6750	inactive	CG3529	1
1.19e5	1.07e5	69255	72250	7975	inactive	SsRbeta (Signal sequence receptor beta)	1
1.16e5	1.13e5	79320	79915	11765	inactive	scaf6 (SR-related CTD associated factor 6)	1
2.85e5	2.42e5	3.19e5	2.51e5	11665	inactive	scaf6 (SR-related CTD associated factor 6)	2
1.03e5	83345	91945	96260	9705	inactive	scaf6 (SR-related CTD associated factor 6)	3
2.33e5	1.94e5	2.22e5	2.51e5	14130	inactive	KrT95D (Krueppel target at 95D)	1
88550	1.09e5	1.81e5	2.23e5	8815	inactive	Reg-2 (Rhythmically expressed gene 2)	1
1.82e5	1.26e5	1.91e5	1.78e5	7790	inactive	Tsen54 (tRNA splicing endonuclease subunit 54)	1
2.01e5	1.89e5	2.19e5	2.20e5	17110	inactive	wake (wide awake)	1
1.76e5	1.61e5	1.68e5	1.60e5	11810	inactive	wake (wide awake)	2
40455	43710	50005	40575	2070	inactive	CG31792	1
2.66e5	2.49e5	2.52e5	2.66e5	20155	inactive	Arl6IP1 (ADP-ribosylation factor-like 6 interacting protein 1)	1
88940	74500	1.29e5	1.63e5	8170	inactive	CG1146	1
92015	85060	1.47e5	1.47e5	9555	active	CG12576	1
